Values from PubChem BioAssay AID504774 (Drosophila RNAi Screening Center, 2011).
Purpose: 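Fly genes whose loss alters survival after alkylation damage to DNA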 (primary screen). System: Drosophila Kc167 cells. Knock-down reagent: long dsRNA against Drosophila genes, about 0.25 µg dsRNA per well. Duration: about 6 days: 3 days knock-down, then 3 days with or without MMS. Challenge: methyl methanesulphonate 0.004% (w/v) for 3 days after knock-down. Measured: 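Viability in wells given MMS, read as ATP luminescence, normalised by quantiles plate by plate and averaged across replicates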. Direction: mean viability with MMS: higher = more surviving cells after MMS.
The deposit covers about 23,000 reagents; shown is an unselected part of those that have a named target and a result. 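Values are quantile-normalised luminescence on an arbitrary scale; higher means more cells surviving MMS.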 Names joined by + are all predicted targets of the reagent. Not all columns of the deposit are shown.

CG33111 [DRSC14208]: mean viability with MMS = 3.74e6
CG33111 [DRSC14444]: mean viability with MMS = 3.76e6
P58IPK [DRSC16404]: mean viability with MMS = 3.51e6
CG13021 [DRSC17893]: mean viability with MMS = 3.40e6
CG12620 [DRSC02177]: mean viability with MMS = 3.46e6
CG7011 + Prp31 [DRSC10760]: mean viability with MMS = 3.58e6
CG14352 [DRSC00382]: mean viability with MMS = 3.44e6
CG13653 [DRSC14653]: mean viability with MMS = 3.51e6
CG18231 [DRSC10307]: mean viability with MMS = 3.56e6
CG42457 (retired record) + cpo [DRSC13273]: mean viability with MMS = 3.63e6
CG42457 (retired record) + cpo [DRSC14503]: mean viability with MMS = 2.95e6
CG42457 (retired record) + cpo [DRSC15327]: mean viability with MMS = 2.83e6
CG42457 (retired record) + cpo [DRSC16926]: mean viability with MMS = 3.11e6
CG42457 (retired record) + cpo [DRSC23006]: mean viability with MMS = 3.47e6
Rad9 [DRSC11263]: mean viability with MMS = 3.60e6
upSET [DRSC11051]: mean viability with MMS = 3.03e6
upSET [DRSC23289]: mean viability with MMS = 3.65e6
CG9849 [DRSC04573]: mean viability with MMS = 3.64e6

Quoted from above (3 entries):
CG42457 (retired record) + cpo [DRSC16926]: mean viability with MMS = 3.11e6
CG42457 (retired record) + cpo [DRSC23006]: mean viability with MMS = 3.47e6
Rad9 [DRSC11263]: mean viability with MMS = 3.60e6

The results go on:
CR32745 [DRSC17442]: mean viability with MMS = 3.44e6
CG13217 [DRSC06339]: mean viability with MMS = 3.24e6
Pex3 [DRSC10731]: mean viability with MMS = 3.57e6
Gnmt [DRSC15987]: mean viability with MMS = 3.52e6
S2P [DRSC07311]: mean viability with MMS = 3.52e6
Rab19 [DRSC11260]: mean viability with MMS = 3.89e6
CG17134 [DRSC02583]: mean viability with MMS = 3.50e6
CG6707 [DRSC10697]: mean viability with MMS = 3.54e6
CG15841 (retired record) + Acp33A [DRSC01859]: mean viability with MMS = 3.56e6
CG15563 [DRSC15101]: mean viability with MMS = 3.42e6
CG11629 [DRSC03695]: mean viability with MMS = 3.56e6
ocm [DRSC04360]: mean viability with MMS = 2.81e6
VhaAC39-1 [DRSC18242]: mean viability with MMS = 3.49e6
Pif1 [DRSC00582]: mean viability with MMS = 3.73e6
CG30457 [DRSC06661]: mean viability with MMS = 3.81e6
Rpn12R [DRSC09842]: mean viability with MMS = 3.42e6
Mst85C [DRSC16746]: mean viability with MMS = 3.40e6
